Taken from: PubChem BioAssay AID1508588 (Peter MacCallum Cancer Centre, 2020)
Purpose: 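Genome-wide search for knock-downs that heighten vemurafenib action in melanoma cells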 (primary screen). System: human WM266.4 melanoma cells (BRAF V600 mutant). Knock-down reagent: siRNA pool against human genes, 40 nM. Duration: 96 h from transfection to read-out. Challenge: vemurafenib 300 nM (about IC25), added 48 h after transfection, for 48 h; comparison arm got DMSO vehicle only. Measurement: 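Ratios to non-targeting siRNA for cell gain, counted as DAPI nuclei after minus before drug and averaged over two replicates, and for absorbance-read medium lactate per cell; both binned into fold-change classes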. Reading the numbers: cell gain with vemurafenib: higher = more cell gain than with non-targeting siRNA; lactate per cell with vemurafenib: higher = more lactate made per cell. Active means: 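Enhancement is called by pairing each knock-down's vehicle-arm and drug-arm fold-change classes for viability or glycolysis; which class combinations qualify is not given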. Calls: active = enhances vemurafenib effect; inactive = no enhancement seen.
Here is a random part of about 18,000 reagents tested. 790 of all reagents (4.4%) were called active. 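Calls rest on a combination of fold-change classes in drug and vehicle arms, not all shown here.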 Unmarked entries are inactive.

target | cell gain with vemurafenib | lactate per cell with vemurafenib
SSH1 | 0.61 | 0.74
TCN1 | 0.52 | 0.89
ALMS1 | 0.15 | 1.42
BIRC8 | 1.3 | 0.66
GDF2 | 0.05 | 2.78
BMP8B | 0.72 | 1.08
CARD14 | 0.34 (active) | 0.36
CTDSPL2 | 0.54 | 1.4
JADE3 | 1.07 | 0.67
POU3F4 | 0.23 | 1.64
CPLX1 | 0.2 | 1.75
ETFRF1 | 0.87 | 0.94
KRTAP5-5 | 0.32 | 1.13
TREM1 | 0.2 | 0.8
DRICH1 | 0.89 | 0.62
CLDND1 | 0.64 (active) | 0.68
MYOCD | 0.57 | 0.74
ZBTB33 | 0.15 | 0.97
IGFL2 | 0.94 | 0.81
CSHL1 | 0.17 | 3.46
REL | 0.44 (active) | 0.46
CEP152 | 1.04 | 0.84
FREY1 | 0.25 | 1.35
PGM3 | 0.78 | 0.64
NPB | 1.18 | 0.58
ID1 | 0.5 | 0.78
CYP7A1 | 0.99 | 0.82
MLANA | 0.9 (active) | 0.48
OR14A16 | 0.92 | 0.48
SNX5 | 0.62 | 0.79
PELI2 | 0.94 | 0.83
MCRS1 | 0.41 | 1.04
PDLIM1 | 0.71 | 1.2
MAD1L1 | 0.57 | 0.38
RUNX1T1 | 0.4 | 2.44
FEM1A | 0.89 | 0.82
SRP19 | 0.64 | 1.14
BRD3 | 0.75 | 1.45
SYK | 0 | 2.41
AIFM3 | 0.38 | 1.01
GSTT2B | 1.32 | 0.64
ENOX2 | 0.48 | 1.23
TMEM37 | 0.93 | 0.8
C1QBP | 0.9 | 0.8
FOLR3 | 0.59 | 0.87
DIP2C | 0.81 | 1.16
LRTOMT | 0.2 | 1.13
E2F5 | 0.9 | 0.58
TAS2R39 | 0.68 | 1.12
VPS9D1 | 1.36 | 0.8
ZNF470 | 0.51 | 1.43
KRT79 | 0.58 | 0.7
SMTNL2 | 0.31 | 2.2
SUN3 | 0.99 | 0.38
AVL9 | 0.13 | 1.19
PLLP | 0.47 | 0.4
NISCH | 0.75 | 1.46
